Results are given in words; binding and its absence hold for the method and conditions named. Some entries that bind do so weakly or less than the wild type.
Biological target: mouse Plxdc2 entire ectodomain (AVEXIS bait and prey) (mouse) (UniProt Q9DC11)
Assay: AVEXIS

By UniProt entry, the sequences of proteins in these tests, tags left out. Residues count along the entry.
UniProt Q9DC11, residues 31-455: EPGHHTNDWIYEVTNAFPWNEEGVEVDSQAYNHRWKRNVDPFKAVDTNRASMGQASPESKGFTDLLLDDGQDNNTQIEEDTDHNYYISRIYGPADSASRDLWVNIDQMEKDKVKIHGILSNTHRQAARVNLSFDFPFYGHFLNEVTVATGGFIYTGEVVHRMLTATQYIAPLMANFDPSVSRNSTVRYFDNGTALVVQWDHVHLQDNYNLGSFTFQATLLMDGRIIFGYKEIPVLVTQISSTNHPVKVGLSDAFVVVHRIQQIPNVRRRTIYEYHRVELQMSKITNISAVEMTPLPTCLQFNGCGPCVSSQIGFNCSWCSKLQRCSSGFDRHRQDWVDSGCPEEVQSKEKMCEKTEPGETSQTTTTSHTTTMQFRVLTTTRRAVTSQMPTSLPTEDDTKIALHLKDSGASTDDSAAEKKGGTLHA
UniProt Q80T32, residues 111-305: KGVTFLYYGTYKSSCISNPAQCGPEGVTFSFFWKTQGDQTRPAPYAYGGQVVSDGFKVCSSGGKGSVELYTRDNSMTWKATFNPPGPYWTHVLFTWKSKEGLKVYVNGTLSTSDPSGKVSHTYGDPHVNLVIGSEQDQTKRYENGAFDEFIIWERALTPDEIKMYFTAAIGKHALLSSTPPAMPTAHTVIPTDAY

**Q.** For “pentraxin (PTX) domain of Adgrd1 (truncated ectodomain) (from UniProt Q80T32 111-305) (domain or fragment)”, which binding is on record?
**A.** binds

Reference: article doi:10.1101/2020.06.15.144444
